Data as given in PubChem BioAssay AID504808 (Drosophila RNAi Screening Center, 2011).
In all, the deposit lists about 21,000 reagents; this is an unselected part of those with a known target gene and a result. Over the whole deposit, 18 (0.084%) got an active call. 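Raw counts without plate normalisation, one of two replicates; the ratio scores behind the calls were not deposited.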 Reagents against one gene are numbered here. Names joined by + are all predicted targets of the reagent. Not given: the amount of reagent, the time to read-out.

Assay: 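Genes whose loss lifts activity of an E2F-responsive reporter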 (primary screen)
System: Drosophila S2 cells
Reagents: long dsRNA against Drosophila genes
Measured: 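Firefly luciferase driven by E2F sites, normalised to Renilla luciferase on the same minimal promoter, measured by plate reader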
Direction: E2F firefly: higher = more E2F reporter activity; Renilla normaliser: higher = more normaliser reporter signal
Active means: 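a knock-down counted as active when the firefly/Renilla E2F signal rose above 50%, a threshold chosen arbitrarily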

target	dsRNA no.	E2F firefly, rep 1	Renilla normaliser, rep 1	Call
CG12071	1	54989	4174	inactive
Vav	1	1.17e5	5724	inactive
RpS5b	1	1.15e5	7218	inactive
Pde11	1	51806	2954	inactive
Pde11	2	85932	3898	inactive
Pex3	1	94471	3367	inactive
CG9782	1	82710	3074	inactive
CG9782	2	1.52e5	5998	inactive
GluRIIB	1	1.50e5	4856	inactive
CG1136	1	74652	4043	inactive
CG3287 (retired record)	1	1.37e5	4633	inactive
nullo	1	1.15e5	5493	inactive
Sbds	1	72118	3650	inactive
Nepl11	1	68297	3412	inactive
IKKbeta	1	74997	4004	inactive
CG1246	1	1.14e5	5097	inactive
CG6262	1	1.10e5	4432	inactive
Bet1	1	1.36e5	6988	inactive
uex	1	84472	3030	inactive
uex	2	77576	3782	inactive
Eip93F	1	78935	2575	inactive
Eip93F	2	1.17e5	5907	inactive
CG13309	1	97564	4592	inactive
CG14744	1	1.47e5	4406	inactive
Cyp313a4	1	1.46e5	7024	inactive
Or59b	1	1.06e5	4473	inactive
Gr33a	1	93379	4473	inactive
CG2147	1	7564	828	inactive
Rpn10	1	94733	7666	inactive
CG17770 + Acam	1	1.14e5	6872	inactive
CG17770 + Acam	2	1.12e5	5551	inactive
CG7406	1	1.58e5	6284	inactive

Targets listed so far whose target name starts with U or u:
target	dsRNA no.	E2F firefly, rep 1	Renilla normaliser, rep 1	Call
uex	1	84472	3030	inactive
uex	2	77576	3782	inactive

The results go on.
target	dsRNA no.	E2F firefly, rep 1	Renilla normaliser, rep 1	Call
Mmp2	1	1.49e5	5530	inactive
CG31952	1	1.40e5	5035	inactive
RfC3	1	1.63e5	5646	inactive
RIOK2	1	1.04e5	6917	inactive
edl	1	72726	3422	inactive
sand	1	1.42e5	4616	inactive
CG16978	1	96788	4015	inactive
rump	1	61959	4029	inactive
CG33178	1	1.29e5	5753	inactive
CG11368	1	1.03e5	5791	inactive
Ero1L	1	71340	3783	inactive
CG18278 + CG30059	1	1.28e5	4661	inactive
Cyp318a1	1	1.42e5	7599	inactive
Rac2	1	1.03e5	4281	inactive
sced	1	75591	3457	inactive
eIF4G2	1	80999	3454	inactive
CG4363	1	93711	4331	inactive
Grip84	1	1.58e5	5761	inactive
Obp19c	1	1.36e5	6568	inactive
Mid1	1	1.18e5	5378	inactive
Mid1	2	1.09e5	4943	inactive
Mid1	3	1.04e5	4794	inactive
CG1764	1	8187	724	inactive
Brd	1	1.35e5	7118	inactive
CG30379	1	1.34e5	5979	inactive
Cpr56F	1	1.47e5	5063	inactive
CG6654	1	75154	3274	inactive
Nos	1	71249	3121	inactive
Traf-like	1	6978	728	inactive
Obp85a	1	1.42e5	6964	inactive
Tango9	1	65834	3207	inactive
mr	1	80875	3730	inactive
CG34326 (retired record)	1	86137	2374	inactive
Psn	1	1.37e5	6393	inactive
Tsp66E	1	88956	3704	inactive
CG4377	1	73098	3683	inactive
regucalcin	1	93138	2920	inactive
regucalcin	2	1.27e5	6303	inactive
Lamtor3	1	1.04e5	4023	inactive
pch2	1	1.51e5	7483	inactive
Snx1	1	1.50e5	4729	inactive
CG11566 (retired record) + stg1	1	91792	5185	inactive
CG11566 (retired record) + stg1	2	1.29e5	5956	inactive
CG11566 (retired record) + stg1	3	1.45e5	6836	inactive
CG11566 (retired record) + stg1	4	1.37e5	6388	inactive
CG14947	1	97911	4392	inactive
CG11444	1	1540	828	inactive
CG4461	1	1.16e5	5960	inactive
CG15278	1	99943	4721	inactive
lbk	1	79566	3478	inactive
Ost48	1	7974	812	inactive
CG14777	1	1.26e5	5266	inactive
